PubChem BioAssay AID504744 | Drosophila RNAi Screening Center | 2011

Test: 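Find genes whose loss alters insulin-driven dAkt phosphorylation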 (primary screen)
System: Drosophila Kc167 cells
Reagent: long dsRNA against Drosophila genes, 250 ng dsRNA per well of a 384-well plate
Time to read-out: 3 days of knock-down, then overnight serum-free starvation before stimulation
Treatment: bovine insulin at 387 nM for 10 minutes after 12 h without serum
Detection: 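Per-well phospho-dAkt level from an in-cell fluorescent antibody stain, divided by a DNA-dye signal; log2 residuals turned into z-scores that take cell number into account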
Active means: 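Under insulin, a gene counts as a hit if the average z-score of two replicates lies above 2.5 or below -2.5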
The screen tested about 23,000 reagents; shown is a random part of those that have a named target and a result. In the full data, 98 (0.43%) are marked active. 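Only hit calls are given; the phospho-dAkt signals, z-scores and hit direction were not deposited.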 Reagents against one gene are numbered here. A plus sign joins genes that one reagent is predicted to hit.

no.	target gene	reagent	Outcome
1	CG43163 (GeneID 38966)	1	inactive
2	CG43163 (GeneID 38966)	2	inactive
3	Cyp6a23 (GeneID 36661)	1	inactive
4	CysRS (GeneID 36784)	1	inactive
5	LBR (GeneID 37482)	1	inactive
6	Pgant7 (GeneID 32836)	1	inactive
7	pum (GeneID 41094)	1	inactive
8	pum (GeneID 41094)	2	inactive
9	pum (GeneID 41094)	3	inactive
10	pum (GeneID 41094)	4	inactive
11	pum (GeneID 41094)	5	inactive
12	pum (GeneID 41094)	6	inactive
13	Ziz (GeneID 34030)	1	inactive
14	Ziz (GeneID 34030)	2	inactive
15	CG42233 (GeneID 43754)	1	inactive
16	CG42233 (GeneID 43754)	2	inactive
17	sens-2 (GeneID 33957)	1	inactive
18	sens-2 (GeneID 33957)	2	inactive
19	sens-2 (GeneID 33957)	3	inactive
20	Taf11 (GeneID 34293)	1	inactive
21	Hsc70-2 (GeneID 41609)	1	active
22	Mur82C (GeneID 40574)	1	inactive
23	Mur82C (GeneID 40574)	2	inactive
24	CG8272 (GeneID 35875)	1	inactive
25	Eig71Ei (GeneID 39710)	1	inactive
26	sug (GeneID 36424)	1	inactive
27	vlc (GeneID 46078)	1	inactive
28	CG10062 (GeneID 37224)	1	inactive
29	CG10062 (GeneID 37224)	2	inactive
30	CG14913 (GeneID 34532)	1	inactive
31	CG33284 (GeneID 2768989)	1	inactive
32	Sugb (GeneID 39314)	1	inactive
33	zld (GeneID 32994)	1	inactive
34	zld (GeneID 32994)	2	inactive
35	Acyp (GeneID 34807)	1	inactive
36	CG1620 (GeneID 35678)	1	inactive
37	Rab23 (GeneID 40701)	1	inactive
38	Pi3K92E (GeneID 42446)	1	inactive
39	CG14658 (GeneID 40603)	1	inactive
40	CG15563 (GeneID 43695)	1	inactive
41	Spt20 (GeneID 39522)	1	inactive
42	wnd (GeneID 40143)	1	inactive
43	wnd (GeneID 40143)	2	inactive
44	wnd (GeneID 40143)	3	inactive
45	CG9922 (GeneID 41708)	1	inactive
46	mbm (GeneID 33194)	1	inactive
47	CG43367 (GeneID 38505)	1	inactive
48	CG43367 (GeneID 38505)	2	inactive
49	CG43367 (GeneID 38505)	3	inactive
50	GlcT (GeneID 37516)	1	inactive
51	IA-2 (GeneID 33277)	1	inactive
52	IA-2 (GeneID 33277)	2	inactive
53	Rab40 (GeneID 32195)	1	inactive
54	sfl (GeneID 38736)	1	inactive
55	sfl (GeneID 38736)	2	inactive
56	qjt (GeneID 39952)	1	inactive
57	CG42366 (GeneID 34319)	1	inactive
58	Pkg21D (GeneID 33253)	1	inactive
59	CG5882 (GeneID 43269)	1	inactive
60	TM9SF2 (GeneID 35335)	1	inactive
61	CG32847 (GeneID 318245)	1	inactive
62	Prosalpha2 (GeneID 41531)	1	inactive
63	CG5674 (GeneID 35072)	1	inactive
64	CG30034 (retired record) (GeneID 246407)	1	inactive
65	GstE1 (GeneID 37106)	1	inactive
66	CG17258 (GeneID 33517)	1	inactive
67	CG17258 (GeneID 33517)	2	inactive
68	hgo (GeneID 34552)	1	inactive
69	CG17574 (GeneID 36415)	1	inactive
70	croc (GeneID 40374)	1	inactive
71	bon (GeneID 44235)	1	inactive
72	CG7080 (GeneID 42609)	1	inactive
73	CG42538 (GeneID 8673985)	1	inactive
74	Pdcd4 (GeneID 32337)	1	inactive
75	Zyx (GeneID 317824)	1	inactive
76	Eip63E (GeneID 38433)	1	inactive
77	Mad1 (GeneID 35954)	1	inactive
78	CG10086 (GeneID 40920)	1	inactive
79	cry (GeneID 42305)	1	inactive
80	Idgf5 (GeneID 37104)	1	inactive
81	CG34159 (GeneID 34353)	1	inactive
82	CG16985 (GeneID 38323)	1	inactive
83	Rab2 (GeneID 35577)	1	inactive

Hits, among the entries above:
target gene	reagent	Outcome
Hsc70-2 (GeneID 41609)	1	active

More results follow.
no.	target gene	reagent	Outcome
84	CG4267 (GeneID 33405)	1	inactive
85	Ser6 (GeneID 33073)	1	inactive
86	Adss (GeneID 42466)	1	inactive
87	DCP1 (GeneID 37790)	1	inactive
88	CG8861 (GeneID 41109)	1	inactive
89	CG8861 (GeneID 41109)	2	inactive
90	CG15473 (GeneID 31401)	1	inactive
91	CG5290 (GeneID 39998)	1	inactive
92	CG11550 (GeneID 43731)	1	inactive
93	mRpL13 (GeneID 35145)	1	inactive
94	CG2127 (GeneID 35811)	1	inactive
95	CG14384 (GeneID 41588)	1	inactive
96	comr (GeneID 37492)	1	inactive
97	CG14810 (GeneID 31131)	1	inactive
98	CG14810 (GeneID 31131)	2	inactive
99	CG11634 (GeneID 35434)	1	inactive
100	Ilp8 (GeneID 39909)	1	inactive
101	CG6106 (GeneID 32816)	1	inactive
102	CG30116 (GeneID 37126)	1	inactive
103	CG30116 (GeneID 37126)	2	inactive
104	CG14459 (GeneID 40476)	1	inactive
105	CG11842 (GeneID 43431)	1	inactive
106	Pak (GeneID 44039)	1	inactive
107	CG5024 (GeneID 43117)	1	inactive
108	CG11854 (GeneID 43037)	1	inactive
109	CG7322 (GeneID 32880)	1	inactive
110	CG13562 (GeneID 37797)	1	inactive
111	Syn1 (GeneID 40424)	1	inactive
112	Syn1 (GeneID 40424)	2	inactive
113	CG6262 (GeneID 36833)	1	inactive
114	CG30265 (GeneID 37622)	1	inactive
115	CG34135 (GeneID 4379850)	1	inactive
116	Arp53D (GeneID 36879)	1	inactive
117	CG15708 (GeneID 36805)	1	inactive
118	Octbeta3R (GeneID 3885573)	1	inactive
119	Octbeta3R (GeneID 3885573)	2	inactive
120	Octbeta3R (GeneID 3885573)	3	inactive
121	Octbeta3R (GeneID 3885573)	4	inactive
122	Octbeta3R (GeneID 3885573)	5	inactive
123	CG31211 (GeneID 41443)	1	inactive
124	CG31211 (GeneID 41443)	2	inactive
125	CG31211 (GeneID 41443)	3	inactive
126	CG13362 (GeneID 31018)	1	inactive
127	BBS1 (GeneID 38780)	1	inactive
128	CG11975 (GeneID 41074)	1	inactive
129	CG6420 (GeneID 43218)	1	inactive
130	kek2 (GeneID 34582)	1	inactive
131	Cul4 (GeneID 35780)	1	inactive
132	Vha100-3 (GeneID 246543)	1	inactive
133	Pp2C1 (GeneID 31404)	1	inactive
134	Vha55 (GeneID 41550)	1	inactive
135	CG9436 (GeneID 35586)	1	inactive
136	CG32237 (GeneID 38584)	1	inactive
137	CG32237 (GeneID 38584)	2	inactive
138	Atg18a (GeneID 38913)	1	inactive
139	sav (GeneID 252554)	1	inactive
140	sav (GeneID 252554)	2	inactive
141	brk (GeneID 31665)	1	inactive
142	grass (GeneID 43273)	1	inactive
143	Cyt-c1L (GeneID 43457)	1	inactive
144	Cyt-c1L (GeneID 43457)	2	inactive
145	SkpF + CG5357 (retired record)	1	inactive
146	Ctr1A (GeneID 31601)	1	inactive
147	CG10936 (GeneID 37000)	1	inactive
148	CG10936 (GeneID 37000)	2	inactive
149	CG10936 (GeneID 37000)	3	inactive
150	CG31955 (GeneID 319045)	1	inactive
151	CG14440 (GeneID 31610)	1	inactive
152	Ubc87F (GeneID 41682)	1	inactive
153	Marc (GeneID 36014)	1	inactive
154	CG6761 (GeneID 39134)	1	inactive
155	Rpt6 (GeneID 33105)	1	inactive
156	CG30280 (GeneID 37522)	1	inactive
157	ric8a (GeneID 31874)	1	inactive
158	TotC (GeneID 117462)	1	inactive
159	Cpn (GeneID 41474)	1	inactive
160	Syn (GeneID 41247)	1	inactive
161	Rcd7 (GeneID 40126)	1	inactive
162	Spn53F (GeneID 36931)	1	inactive
163	CG8089 (GeneID 36679)	1	inactive
164	RNaseP:RNA (GeneID 3772418)	1	inactive
165	Pburs (GeneID 34845)	1	inactive
166	CG33922 (GeneID 3771945)	1	inactive
167	Eip75B (GeneID 39999)	1	inactive
168	CG17801 (GeneID 42144)	1	inactive
169	CG31457 (GeneID 326142)	1	inactive
170	CG15468 (GeneID 31426)	1	inactive
171	srw (GeneID 38525)	1	inactive
172	Osi16 (GeneID 318801)	1	inactive
173	Osi16 (GeneID 318801)	2	inactive
174	CG16956 (GeneID 34760)	1	inactive
175	CG5554 (GeneID 37775)	1	inactive
176	AlkB (GeneID 2768870)	1	inactive
177	EMC4 (GeneID 40505)	1	inactive
178	Nurf-38 (GeneID 37922)	1	inactive
179	CG3546 (GeneID 31389)	1	inactive
180	CG9270 (GeneID 35366)	1	inactive
181	CG12171 (GeneID 40690)	1	inactive
182	CG2964 (GeneID 33475)	1	inactive
183	CG7974 (GeneID 38207)	1	inactive
184	t-cup (GeneID 318986)	1	inactive
185	CG1695 (GeneID 33046)	1	inactive
186	CG32107 (GeneID 317856)	1	inactive
187	Nup50 (GeneID 35784)	1	inactive
188	CG15096 (GeneID 37170)	1	inactive
189	Asap (GeneID 35783)	1	inactive
190	Asap (GeneID 35783)	2	inactive
191	CG31391 (GeneID 41280)	1	inactive
192	CG34290 (GeneID 5740609)	1	inactive
193	yrt (GeneID 41656)	1	inactive
194	yellow-d2 (GeneID 37704)	1	inactive
195	Meics (GeneID 39539)	1	inactive
196	CG9631 (GeneID 41729)	1	inactive
197	CG13603 (GeneID 42838)	1	inactive
198	Ir56d (GeneID 37252)	1	inactive
199	CG13810 (GeneID 38278)	1	inactive
200	CG13810 (GeneID 38278)	2	inactive
